These are yes or no findings as the source states them, for the method shown. In cells and extracts the contact can be indirect. Where a sequence is shown, tags or fusion partners need not be part of it.

1 substance from PMC5025042 can be followed below.

The target in this experiment is T1, Tgl-His6 (B. subtilis) (UniProt P40746).
T1 sequence: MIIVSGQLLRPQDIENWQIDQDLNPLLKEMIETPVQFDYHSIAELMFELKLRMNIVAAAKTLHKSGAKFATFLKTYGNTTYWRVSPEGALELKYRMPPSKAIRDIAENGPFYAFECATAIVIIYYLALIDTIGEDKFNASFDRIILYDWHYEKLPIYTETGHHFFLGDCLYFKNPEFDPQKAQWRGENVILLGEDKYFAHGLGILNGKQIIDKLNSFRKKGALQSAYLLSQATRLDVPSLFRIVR
The experiment can be described thus: pull-down; Ni2+-NTA beads first incubated with a lysate containing CD1234-His6 or Tgl-His6, then with a CD1231-Strep-containing extract for a further 30 min at room temperature; washed in 200 mM NaCl, 10 mM Tris-HCl pH 8.0, 10% glycerol; immunoblot with anti-Strep and anti-His6.

For the substance “CD1231-Strep (Clostridium difficile (strain 630Δerm)) (enzyme)”, the binding result is “no binding”.
